Results from US5840740A, “Aminosterol compounds and a method of treating infection using the aminosterol compounds” (priority 1995, dated 1998).
At least one compound was matched to its structure with a doubt left.

How the values were obtained:
Xenopus tadpole = conditions: 10 μg/mL
NHE1 = conditions: in words; Counillon et al.; cited from earlier work

SMILES	E (epithelial) (Xenopus tadpole)	GI (gastrointestinal) (Xenopus tadpole)	M (melanocytes) (Xenopus tadpole)	Mus (muscle) (Xenopus tadpole)	V (vascular) (Xenopus tadpole)	NHE isoform specificity (NHE1)
CC(C)CCC[C@@H](C)[C@H]1CC[C@H]2[C@@H]3[C@H](O)C[C@H]4C[C@@H](N)CC[C@]4(C)[C@H]3CC[C@]12C [Compound 1364]	±	-	-	-	+	
CS(=O)(=O)c1cc(C(=O)N=C(N)N)ccc1N1CCCCC1 [(3-methylsulfonyl-4-piperidinobenzoyl) guanidine methanesulfonate]						exhibits particular selectivity to the NHE1
